Source: publication doi:10.1101/2020.08.14.250746
Results are given in words; binding and its absence hold for the method and conditions named. Binding seen in cells or lysates may run through a third protein. Some binding calls cover weakened binding; strength is not graded here.

By UniProt entry, the sequences of proteins in these tests, tags left out. Residues count along the entry.
UniProt P21271, residues 1-1090: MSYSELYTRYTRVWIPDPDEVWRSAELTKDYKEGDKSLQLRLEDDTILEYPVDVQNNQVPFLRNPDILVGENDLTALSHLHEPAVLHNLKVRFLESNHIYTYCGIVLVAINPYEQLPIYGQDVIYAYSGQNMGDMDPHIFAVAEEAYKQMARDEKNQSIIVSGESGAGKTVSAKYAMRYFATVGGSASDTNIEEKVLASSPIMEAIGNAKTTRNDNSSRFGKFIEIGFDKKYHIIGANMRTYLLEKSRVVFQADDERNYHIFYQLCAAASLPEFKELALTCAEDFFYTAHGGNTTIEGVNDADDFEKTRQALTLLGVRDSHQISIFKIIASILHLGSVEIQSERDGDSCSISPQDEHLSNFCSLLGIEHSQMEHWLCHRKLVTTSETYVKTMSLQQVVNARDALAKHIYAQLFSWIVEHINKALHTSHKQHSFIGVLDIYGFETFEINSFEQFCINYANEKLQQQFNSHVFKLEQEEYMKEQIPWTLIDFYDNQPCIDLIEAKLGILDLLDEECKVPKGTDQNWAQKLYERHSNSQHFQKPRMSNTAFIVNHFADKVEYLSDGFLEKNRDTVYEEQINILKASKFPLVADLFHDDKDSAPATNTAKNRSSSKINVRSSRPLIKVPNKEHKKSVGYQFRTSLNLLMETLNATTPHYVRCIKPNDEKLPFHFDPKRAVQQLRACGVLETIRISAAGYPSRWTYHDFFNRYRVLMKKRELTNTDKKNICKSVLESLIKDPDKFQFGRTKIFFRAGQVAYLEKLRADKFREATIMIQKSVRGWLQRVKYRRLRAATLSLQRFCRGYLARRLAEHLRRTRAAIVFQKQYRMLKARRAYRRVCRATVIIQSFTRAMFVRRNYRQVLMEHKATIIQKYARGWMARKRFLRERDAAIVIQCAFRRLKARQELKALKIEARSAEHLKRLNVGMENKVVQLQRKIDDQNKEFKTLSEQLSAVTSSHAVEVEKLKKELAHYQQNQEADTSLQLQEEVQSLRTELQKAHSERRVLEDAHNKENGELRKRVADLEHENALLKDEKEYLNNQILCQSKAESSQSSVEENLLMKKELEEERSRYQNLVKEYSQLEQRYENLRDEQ
UniProt O88751: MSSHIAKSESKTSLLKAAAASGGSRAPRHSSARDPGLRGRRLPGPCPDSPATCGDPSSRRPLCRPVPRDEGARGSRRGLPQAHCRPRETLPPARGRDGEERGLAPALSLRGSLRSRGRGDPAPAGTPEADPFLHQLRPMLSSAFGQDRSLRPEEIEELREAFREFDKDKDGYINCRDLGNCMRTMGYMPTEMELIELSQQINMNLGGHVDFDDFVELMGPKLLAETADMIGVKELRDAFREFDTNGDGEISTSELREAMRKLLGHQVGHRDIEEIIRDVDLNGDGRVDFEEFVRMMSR

Legend:
[1] = target: GFP-myoVa-IQ1 (aa742-791); assay: co-IP
MyoVb(1-1090)-GFP-FRB = MyoVb(1-1090)-GFP-FRB (UniProt P21271); assay: co-IP
[2] = target: GFP-myoVa-IQ1 (aa742-791); assay: pull-down

Measured: binding

full-length, tagRFP-coupled caldendrin (from UniProt O88751 1-298)
binds: all assays above
